Measured values: article PMC8629787

Chains of the proteins cited; added tags and fusions are not shown. Lines headed by an entry give the natural chain unless they say otherwise; changes in a name come on top. Residues count along the entry.
UniProt Q0B4G1: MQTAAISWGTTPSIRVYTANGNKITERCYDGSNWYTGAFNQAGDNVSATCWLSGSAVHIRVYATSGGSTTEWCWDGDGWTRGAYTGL
UniProt P08575, residues 26-1306: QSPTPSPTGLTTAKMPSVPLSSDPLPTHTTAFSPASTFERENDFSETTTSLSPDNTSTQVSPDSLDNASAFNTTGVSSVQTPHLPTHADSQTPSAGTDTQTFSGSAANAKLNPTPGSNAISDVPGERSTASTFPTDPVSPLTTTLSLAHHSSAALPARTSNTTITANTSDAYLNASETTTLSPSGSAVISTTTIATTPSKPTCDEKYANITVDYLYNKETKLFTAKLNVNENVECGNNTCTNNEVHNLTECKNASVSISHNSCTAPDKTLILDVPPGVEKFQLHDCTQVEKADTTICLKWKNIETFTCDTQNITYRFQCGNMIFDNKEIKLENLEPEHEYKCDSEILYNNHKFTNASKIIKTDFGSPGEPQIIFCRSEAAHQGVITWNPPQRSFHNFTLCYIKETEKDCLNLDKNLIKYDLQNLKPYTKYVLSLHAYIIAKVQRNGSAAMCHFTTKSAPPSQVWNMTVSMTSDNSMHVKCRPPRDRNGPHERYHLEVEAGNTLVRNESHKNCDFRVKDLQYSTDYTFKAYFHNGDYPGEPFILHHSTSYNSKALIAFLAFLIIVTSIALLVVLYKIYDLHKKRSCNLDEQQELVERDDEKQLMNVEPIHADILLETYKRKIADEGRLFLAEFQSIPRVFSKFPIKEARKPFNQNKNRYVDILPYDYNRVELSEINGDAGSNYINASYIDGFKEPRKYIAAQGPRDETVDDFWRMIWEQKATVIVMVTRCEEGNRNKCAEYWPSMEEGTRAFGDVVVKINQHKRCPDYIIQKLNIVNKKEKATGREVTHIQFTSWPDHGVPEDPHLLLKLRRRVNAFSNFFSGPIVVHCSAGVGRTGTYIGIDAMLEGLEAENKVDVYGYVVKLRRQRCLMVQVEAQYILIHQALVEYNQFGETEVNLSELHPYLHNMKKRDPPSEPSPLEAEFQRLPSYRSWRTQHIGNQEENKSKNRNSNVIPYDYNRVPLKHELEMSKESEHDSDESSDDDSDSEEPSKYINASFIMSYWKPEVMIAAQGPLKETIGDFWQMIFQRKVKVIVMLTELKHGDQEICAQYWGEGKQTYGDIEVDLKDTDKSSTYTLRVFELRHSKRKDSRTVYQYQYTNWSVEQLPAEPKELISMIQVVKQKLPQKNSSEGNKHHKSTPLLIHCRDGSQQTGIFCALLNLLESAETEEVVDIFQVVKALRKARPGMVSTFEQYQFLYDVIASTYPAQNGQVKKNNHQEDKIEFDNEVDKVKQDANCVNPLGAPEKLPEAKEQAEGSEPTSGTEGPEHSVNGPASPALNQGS
UniProt P25445, residues 26-335: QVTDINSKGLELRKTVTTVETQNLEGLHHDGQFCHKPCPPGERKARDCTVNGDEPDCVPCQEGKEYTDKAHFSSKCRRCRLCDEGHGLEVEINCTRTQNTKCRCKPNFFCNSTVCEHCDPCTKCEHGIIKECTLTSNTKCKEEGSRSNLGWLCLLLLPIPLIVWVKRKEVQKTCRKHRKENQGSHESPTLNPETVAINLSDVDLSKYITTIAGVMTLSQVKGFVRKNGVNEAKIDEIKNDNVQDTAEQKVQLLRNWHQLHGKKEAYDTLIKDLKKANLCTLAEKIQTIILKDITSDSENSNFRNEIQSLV
UniProt P20273, residues 20-847: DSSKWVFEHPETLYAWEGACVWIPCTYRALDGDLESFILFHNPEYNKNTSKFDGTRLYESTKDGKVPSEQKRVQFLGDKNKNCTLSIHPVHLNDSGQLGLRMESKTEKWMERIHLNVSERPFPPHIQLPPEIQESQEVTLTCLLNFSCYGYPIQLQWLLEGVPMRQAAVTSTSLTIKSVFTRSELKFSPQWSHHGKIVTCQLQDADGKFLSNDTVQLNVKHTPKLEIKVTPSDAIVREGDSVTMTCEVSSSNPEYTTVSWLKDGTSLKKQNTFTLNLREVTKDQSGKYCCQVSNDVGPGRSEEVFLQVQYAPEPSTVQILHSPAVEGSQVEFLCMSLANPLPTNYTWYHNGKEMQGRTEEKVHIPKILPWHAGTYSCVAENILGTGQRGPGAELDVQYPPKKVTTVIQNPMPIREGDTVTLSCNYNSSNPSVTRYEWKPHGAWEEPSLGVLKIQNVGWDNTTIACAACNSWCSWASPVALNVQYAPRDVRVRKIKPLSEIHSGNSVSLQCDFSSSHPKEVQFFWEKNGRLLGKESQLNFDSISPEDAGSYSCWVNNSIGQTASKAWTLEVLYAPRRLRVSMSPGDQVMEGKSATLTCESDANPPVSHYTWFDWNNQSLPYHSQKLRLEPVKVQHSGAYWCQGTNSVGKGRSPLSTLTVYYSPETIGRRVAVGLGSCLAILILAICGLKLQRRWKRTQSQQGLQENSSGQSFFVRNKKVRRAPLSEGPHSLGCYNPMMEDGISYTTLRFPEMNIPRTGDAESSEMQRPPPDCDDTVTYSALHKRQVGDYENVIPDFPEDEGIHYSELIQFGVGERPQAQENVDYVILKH
UniProt P40259, residues 29-229: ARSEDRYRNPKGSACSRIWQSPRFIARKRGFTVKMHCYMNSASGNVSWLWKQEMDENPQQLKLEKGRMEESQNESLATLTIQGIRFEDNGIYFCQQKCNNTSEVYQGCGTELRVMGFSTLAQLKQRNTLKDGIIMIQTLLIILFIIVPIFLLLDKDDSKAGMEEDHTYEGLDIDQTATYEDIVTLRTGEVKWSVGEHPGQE
UniProt P06213, residues 28-1382: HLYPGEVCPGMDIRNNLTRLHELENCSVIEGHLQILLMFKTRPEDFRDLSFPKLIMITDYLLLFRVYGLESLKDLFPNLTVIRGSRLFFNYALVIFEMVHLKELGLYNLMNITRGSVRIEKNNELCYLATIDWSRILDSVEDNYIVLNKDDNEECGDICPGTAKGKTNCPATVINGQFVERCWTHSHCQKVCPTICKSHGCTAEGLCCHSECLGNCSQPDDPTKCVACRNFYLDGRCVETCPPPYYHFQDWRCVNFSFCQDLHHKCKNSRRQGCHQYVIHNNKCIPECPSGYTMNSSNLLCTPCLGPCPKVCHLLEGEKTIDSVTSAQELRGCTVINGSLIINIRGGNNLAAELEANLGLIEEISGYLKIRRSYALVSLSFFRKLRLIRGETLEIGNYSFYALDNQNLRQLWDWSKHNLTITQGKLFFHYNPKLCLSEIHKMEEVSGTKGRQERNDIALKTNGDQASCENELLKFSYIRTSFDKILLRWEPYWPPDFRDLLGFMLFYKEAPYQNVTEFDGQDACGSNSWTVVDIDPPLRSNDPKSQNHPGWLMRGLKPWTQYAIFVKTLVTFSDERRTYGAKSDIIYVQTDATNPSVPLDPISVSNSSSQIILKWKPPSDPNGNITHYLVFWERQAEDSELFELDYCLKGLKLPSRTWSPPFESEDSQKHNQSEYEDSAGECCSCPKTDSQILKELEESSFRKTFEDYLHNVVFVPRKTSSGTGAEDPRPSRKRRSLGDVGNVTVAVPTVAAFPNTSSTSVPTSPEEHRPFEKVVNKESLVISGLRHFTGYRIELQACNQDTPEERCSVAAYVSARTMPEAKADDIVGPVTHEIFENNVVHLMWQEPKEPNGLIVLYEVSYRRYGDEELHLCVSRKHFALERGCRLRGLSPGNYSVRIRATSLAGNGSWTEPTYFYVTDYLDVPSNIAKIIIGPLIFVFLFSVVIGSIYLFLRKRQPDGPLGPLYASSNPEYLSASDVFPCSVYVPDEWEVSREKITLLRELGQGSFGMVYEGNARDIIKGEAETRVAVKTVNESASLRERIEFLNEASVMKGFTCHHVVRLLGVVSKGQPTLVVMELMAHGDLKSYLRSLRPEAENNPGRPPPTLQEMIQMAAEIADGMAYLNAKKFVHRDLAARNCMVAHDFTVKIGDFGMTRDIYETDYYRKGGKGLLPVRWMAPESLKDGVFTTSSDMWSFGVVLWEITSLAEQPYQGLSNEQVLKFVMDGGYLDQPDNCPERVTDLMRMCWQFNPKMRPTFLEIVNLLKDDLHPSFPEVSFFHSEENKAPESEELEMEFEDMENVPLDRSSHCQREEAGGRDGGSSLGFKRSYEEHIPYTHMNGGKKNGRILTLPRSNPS
UniProt P15391, residues 20-556: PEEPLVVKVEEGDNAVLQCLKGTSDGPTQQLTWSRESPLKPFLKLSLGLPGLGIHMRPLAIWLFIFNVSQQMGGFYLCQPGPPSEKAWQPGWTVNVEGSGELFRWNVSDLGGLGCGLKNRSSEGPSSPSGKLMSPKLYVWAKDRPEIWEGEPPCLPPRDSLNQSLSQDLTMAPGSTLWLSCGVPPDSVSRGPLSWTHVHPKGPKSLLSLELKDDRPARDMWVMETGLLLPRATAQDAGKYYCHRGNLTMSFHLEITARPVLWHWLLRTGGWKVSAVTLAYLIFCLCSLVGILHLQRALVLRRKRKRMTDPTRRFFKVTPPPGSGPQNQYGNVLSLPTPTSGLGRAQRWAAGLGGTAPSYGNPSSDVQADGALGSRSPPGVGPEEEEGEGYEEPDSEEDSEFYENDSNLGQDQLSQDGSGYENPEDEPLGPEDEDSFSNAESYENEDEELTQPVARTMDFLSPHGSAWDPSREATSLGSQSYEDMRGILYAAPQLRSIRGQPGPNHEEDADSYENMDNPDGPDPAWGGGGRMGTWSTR

Target: Biotinylated BambL (BambL-biotin) (UniProt Q0B4G1)
Assay: affinity purification with mass spectrometry; only the target purified

CD45 (B220, PTPRC) (from UniProt P08575 26-1306) (receptor)
binding: binds

death receptor FAS-R (CD95, APO-1) (from UniProt P25445 26-335)
binding: binds

CD22 (Siglec-2) (from UniProt P20273 20-847) (receptor)
binding: binds

Igβ (CD79b) (from UniProt P40259 29-229) (receptor)
binding: binds

insulin receptor (from UniProt P06213 28-1382)
binding: binds

CD19 (from UniProt P15391 20-556) (receptor)
binding: binds

Results are given in words; binding and its absence hold for the method and conditions named. Binding seen in cells or lysates may run through a third protein. A yes stands for co-enrichment or nearness to the bait. Other partners may have been found.
